Results deposited as PubChem BioAssay AID1224826 (NIAID, 2016)

Assay: 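Regulators of Tlr4 signalling leading to Tnf-alpha expression in macrophages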 (primary screen)
Cells: RAW264.7 G9 macrophages from mouse bearing reporters for p65 (GFP) and the Tnf promoter (mCherry)
Knock-down reagent: siRNA pool against mouse genes, 100 nM
Duration: 16 h of LPS stimulation, after 2 days of siRNA transfection
Challenge: bacterial lipopolysaccharide (Salmonella minnesota R595), 10 ng/ml
Read-out: 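Imaged Tnf reporter mCherry in nuclei, minus background, normalised per plate to the median and expressed as robust z-scores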
Direction: Tnf reporter robust z-score: higher = stronger Tnf promoter reporter signal after LPS
Active means: 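a well counts as active at a score of -1.3 or below (Tlr4 knock-down control median) or above 3 (raised signal); controls and wells holding fewer than 50 cells are excluded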
Meaning of the calls: active = Tnf reporter clearly lowered or raised; inactive = no clear change in Tnf reporter
This is an unselected part of about 17,000 reagents. Over the whole deposit, about 1,110 (6.6%) are marked active. 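Active means lowered or raised reporter signal; replicate intensities are raw and not normalised per plate.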 Unmarked entries are inactive. Not all columns of the deposit are shown.

The first 2 entries, to show the layout:
Or8b4
- Tnf reporter robust z-score: 0.02
- fewer than 50 cells in well: enough cells in well

Pgm2
- Tnf reporter robust z-score: -1.32 (active)
- fewer than 50 cells in well: enough cells in well

Results, from the first entry:
Or8b4
- Tnf reporter robust z-score: 0.02
- fewer than 50 cells in well: enough cells in well

Pgm2
- Tnf reporter robust z-score: -1.32 (active)
- fewer than 50 cells in well: enough cells in well

Pigz
- Tnf reporter robust z-score: 0.12
- fewer than 50 cells in well: enough cells in well

Or4c113
- Tnf reporter robust z-score: -1.13
- fewer than 50 cells in well: enough cells in well

Crocc
- Tnf reporter robust z-score: -1.23
- fewer than 50 cells in well: enough cells in well

Zfp113
- fewer than 50 cells in well: fewer than 50 cells per well; well left out of calls

Zfp940
- Tnf reporter robust z-score: -0.91
- fewer than 50 cells in well: enough cells in well

Aldoc
- Tnf reporter robust z-score: -0.68
- fewer than 50 cells in well: enough cells in well

Depdc5
- Tnf reporter robust z-score: -0.53
- fewer than 50 cells in well: enough cells in well

Vmn1r41
- Tnf reporter robust z-score: -0.41
- fewer than 50 cells in well: enough cells in well

Dcxr
- Tnf reporter robust z-score: -0.83
- fewer than 50 cells in well: enough cells in well

Hcar2
- Tnf reporter robust z-score: 0.47
- fewer than 50 cells in well: enough cells in well

Pkd2l1
- Tnf reporter robust z-score: 1.15
- fewer than 50 cells in well: enough cells in well

Or2a25
- Tnf reporter robust z-score: 1.83
- fewer than 50 cells in well: enough cells in well

Cyp2b9
- Tnf reporter robust z-score: -0.72
- fewer than 50 cells in well: enough cells in well

Tnfrsf10b
- Tnf reporter robust z-score: 1.2
- fewer than 50 cells in well: enough cells in well

Ctif
- Tnf reporter robust z-score: -1.83 (active)
- fewer than 50 cells in well: enough cells in well

Stx7
- Tnf reporter robust z-score: -0.24
- fewer than 50 cells in well: enough cells in well

Afg1l
- Tnf reporter robust z-score: 0.44
- fewer than 50 cells in well: enough cells in well

Pprc1
- Tnf reporter robust z-score: -0.72
- fewer than 50 cells in well: enough cells in well

Gpat3
- Tnf reporter robust z-score: 1.54
- fewer than 50 cells in well: enough cells in well
